One data set relates to Ku dCTR (human). In words: EMSA. The settings on record: EMSA: 25 mM Hepes-KOH pH 7.5, 50 mM NaCl, 1 mM DTT, 1 mM EDTA, 10% glycerol, 0.1 uM BSA, room temperature, 25 min, recombinant protein. For orientation: In EMSA bound probe runs differently from free probe, usually more slowly.
In data set [1] the test system is Ku70/Ku80 heterodimer (HeLa) (human (HeLa cells)). In words: EMSA. The settings on record: EMSA: 25 mM Hepes-KOH pH 7.5, 50 mM NaCl, 1 mM DTT, 1 mM EDTA, 10% glycerol, 0.1 uM BSA, room temperature, 25 min, native protein.
The test system of data set [2] is Ku70/Ku80 heterodimer FL (baculovirus) + PAXX. In words: EMSA. To be noted: no supershift by PAXX, Ku-RNA complex unaffected; EMSA: 25 mM Hepes-KOH pH 7.5, 50 mM NaCl, 1 mM DTT, 1 mM EDTA, 10% glycerol, 0.1 uM BSA, room temperature, 25 min; recombinant protein; protein details: His (Ku80),GST cleaved; label: 5'-FAM.
Data set [3] has as its system Ku70/Ku80 heterodimer FL (baculovirus) + APLF. As to the kind of experiment: EMSA. The settings on record: supershift, EMSA: 25 mM Hepes-KOH pH 7.5, 50 mM NaCl, 1 mM DTT, 1 mM EDTA, 10% glycerol, 0.1 uM BSA, room temperature, 25 min, recombinant protein, protein details: His (Ku80).
Data set [4] relates to Ku70/Ku80 heterodimer FL (baculovirus) (human). In words: EMSA. The settings on record: EMSA: 25 mM Hepes-KOH pH 7.5, 50 mM NaCl, 1 mM DTT, 1 mM EDTA, 10% glycerol, 0.1 uM BSA, room temperature, 25 min, recombinant protein, protein details: His (Ku80).
Data set [5] concerns Ku5D T305D,S306D,T307D,S314D,T316D (human). In words: SEC-SAXS. To be noted: Ku dimer fraction increased; recombinant protein; label: 5'-FAM. For orientation: Size exclusion chromatography separates by hydrodynamic size, large species first.
Data set [6] deals with Ku5A T305A,S306A,T307A,S314A,T316A (human). In words: SEC-SAXS. The settings on record: Ku dimer fraction increased; recombinant protein; label: 5'-FAM.

Chains of the proteins cited; added tags and fusions are not shown. Chains listed by the source or under a name are the forms on record and can include a tag or linker.
Ku5A T305A,S306A,T307A,S314A,T316A (human), one chain, as listed by the source T305A S306A T307A S314A T316A, chain 1 of 2: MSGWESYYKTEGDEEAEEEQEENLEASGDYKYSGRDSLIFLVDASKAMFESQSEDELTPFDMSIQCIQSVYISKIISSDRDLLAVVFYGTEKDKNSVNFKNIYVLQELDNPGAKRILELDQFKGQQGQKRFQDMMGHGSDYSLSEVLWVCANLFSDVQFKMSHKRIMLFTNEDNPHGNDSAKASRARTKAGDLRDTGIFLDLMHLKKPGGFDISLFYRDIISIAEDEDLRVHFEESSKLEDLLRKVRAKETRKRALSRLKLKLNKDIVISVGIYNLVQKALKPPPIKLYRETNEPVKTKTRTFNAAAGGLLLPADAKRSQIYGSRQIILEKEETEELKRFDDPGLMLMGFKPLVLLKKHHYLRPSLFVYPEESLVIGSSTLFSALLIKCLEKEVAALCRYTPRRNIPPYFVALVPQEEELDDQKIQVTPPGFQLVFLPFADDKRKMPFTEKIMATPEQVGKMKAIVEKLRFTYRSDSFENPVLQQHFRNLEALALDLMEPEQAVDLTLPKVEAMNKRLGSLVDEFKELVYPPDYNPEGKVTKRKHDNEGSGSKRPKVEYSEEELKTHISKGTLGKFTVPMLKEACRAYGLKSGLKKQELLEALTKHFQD
Ku dCTR (human), one chain, as listed by the source, chain 1 of 2: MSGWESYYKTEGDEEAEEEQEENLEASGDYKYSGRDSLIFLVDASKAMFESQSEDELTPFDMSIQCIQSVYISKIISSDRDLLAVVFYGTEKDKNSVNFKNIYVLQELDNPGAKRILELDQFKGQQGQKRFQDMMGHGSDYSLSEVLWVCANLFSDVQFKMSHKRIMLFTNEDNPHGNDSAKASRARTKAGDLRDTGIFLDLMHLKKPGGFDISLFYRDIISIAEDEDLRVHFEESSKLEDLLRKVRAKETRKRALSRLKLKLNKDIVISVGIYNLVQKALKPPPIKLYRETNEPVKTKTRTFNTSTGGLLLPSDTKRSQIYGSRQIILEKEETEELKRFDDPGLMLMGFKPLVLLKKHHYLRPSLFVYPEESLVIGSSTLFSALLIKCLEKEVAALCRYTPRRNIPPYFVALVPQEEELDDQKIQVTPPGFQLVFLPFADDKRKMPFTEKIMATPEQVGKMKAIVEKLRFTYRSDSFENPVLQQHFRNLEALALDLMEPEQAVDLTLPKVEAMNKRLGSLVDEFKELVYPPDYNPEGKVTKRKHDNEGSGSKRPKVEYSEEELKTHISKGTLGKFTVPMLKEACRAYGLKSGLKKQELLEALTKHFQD
Ku5D T305D,S306D,T307D,S314D,T316D (human), one chain, as listed by the source T305D S306D T307D S314D T316D, chain 1 of 2: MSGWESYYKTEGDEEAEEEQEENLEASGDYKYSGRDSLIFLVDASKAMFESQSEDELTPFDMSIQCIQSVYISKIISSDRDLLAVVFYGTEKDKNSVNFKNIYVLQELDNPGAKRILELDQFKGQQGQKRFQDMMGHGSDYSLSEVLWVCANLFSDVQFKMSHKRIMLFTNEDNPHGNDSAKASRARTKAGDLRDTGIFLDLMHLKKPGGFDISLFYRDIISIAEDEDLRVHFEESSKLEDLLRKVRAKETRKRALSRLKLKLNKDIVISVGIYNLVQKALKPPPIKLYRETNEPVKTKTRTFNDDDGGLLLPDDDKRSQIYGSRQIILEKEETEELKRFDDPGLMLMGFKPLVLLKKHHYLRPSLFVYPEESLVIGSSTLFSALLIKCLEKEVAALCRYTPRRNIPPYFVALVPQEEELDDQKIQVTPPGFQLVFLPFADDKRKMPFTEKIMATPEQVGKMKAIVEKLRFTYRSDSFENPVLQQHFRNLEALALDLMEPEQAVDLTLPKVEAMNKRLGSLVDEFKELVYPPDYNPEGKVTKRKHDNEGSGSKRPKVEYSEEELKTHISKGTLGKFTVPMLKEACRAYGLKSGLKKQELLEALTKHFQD
Ku dCTR (human), one chain, as listed by the source, chain 2 of 2: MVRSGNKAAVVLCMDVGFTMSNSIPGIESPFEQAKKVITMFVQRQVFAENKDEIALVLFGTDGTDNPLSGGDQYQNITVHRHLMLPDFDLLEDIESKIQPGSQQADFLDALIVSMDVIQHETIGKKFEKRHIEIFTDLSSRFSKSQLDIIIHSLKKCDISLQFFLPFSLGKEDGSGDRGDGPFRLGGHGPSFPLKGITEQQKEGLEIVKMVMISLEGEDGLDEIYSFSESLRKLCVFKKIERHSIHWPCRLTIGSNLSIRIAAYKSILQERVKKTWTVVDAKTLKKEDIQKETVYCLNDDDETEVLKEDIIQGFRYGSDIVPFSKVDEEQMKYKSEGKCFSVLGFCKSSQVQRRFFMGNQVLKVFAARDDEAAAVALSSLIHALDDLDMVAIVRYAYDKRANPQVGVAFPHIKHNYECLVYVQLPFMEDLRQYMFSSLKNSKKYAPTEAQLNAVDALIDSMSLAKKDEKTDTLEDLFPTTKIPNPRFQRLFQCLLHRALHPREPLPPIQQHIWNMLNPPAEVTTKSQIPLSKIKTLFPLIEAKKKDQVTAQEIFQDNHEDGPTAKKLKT
Ku70/Ku80 heterodimer (HeLa) (human (HeLa cells)), one chain, as listed by the source, chain 1 of 2: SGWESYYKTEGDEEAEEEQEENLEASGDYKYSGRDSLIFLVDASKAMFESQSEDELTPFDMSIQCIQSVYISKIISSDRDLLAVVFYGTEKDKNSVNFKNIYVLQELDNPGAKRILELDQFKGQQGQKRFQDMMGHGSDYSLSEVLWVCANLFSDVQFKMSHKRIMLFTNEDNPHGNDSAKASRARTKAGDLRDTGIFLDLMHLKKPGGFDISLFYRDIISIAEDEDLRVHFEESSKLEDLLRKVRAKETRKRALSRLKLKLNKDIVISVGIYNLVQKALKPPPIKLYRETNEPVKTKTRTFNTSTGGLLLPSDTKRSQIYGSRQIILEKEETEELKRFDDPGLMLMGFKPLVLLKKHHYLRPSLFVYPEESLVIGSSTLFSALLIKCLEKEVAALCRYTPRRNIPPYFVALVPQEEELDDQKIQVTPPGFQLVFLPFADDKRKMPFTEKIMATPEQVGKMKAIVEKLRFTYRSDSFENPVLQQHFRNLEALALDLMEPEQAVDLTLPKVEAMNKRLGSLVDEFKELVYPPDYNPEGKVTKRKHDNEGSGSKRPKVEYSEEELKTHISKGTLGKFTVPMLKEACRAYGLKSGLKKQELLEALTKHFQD
Ku70/Ku80 heterodimer (HeLa) (human (HeLa cells)), one chain, as listed by the source, chain 2 of 2: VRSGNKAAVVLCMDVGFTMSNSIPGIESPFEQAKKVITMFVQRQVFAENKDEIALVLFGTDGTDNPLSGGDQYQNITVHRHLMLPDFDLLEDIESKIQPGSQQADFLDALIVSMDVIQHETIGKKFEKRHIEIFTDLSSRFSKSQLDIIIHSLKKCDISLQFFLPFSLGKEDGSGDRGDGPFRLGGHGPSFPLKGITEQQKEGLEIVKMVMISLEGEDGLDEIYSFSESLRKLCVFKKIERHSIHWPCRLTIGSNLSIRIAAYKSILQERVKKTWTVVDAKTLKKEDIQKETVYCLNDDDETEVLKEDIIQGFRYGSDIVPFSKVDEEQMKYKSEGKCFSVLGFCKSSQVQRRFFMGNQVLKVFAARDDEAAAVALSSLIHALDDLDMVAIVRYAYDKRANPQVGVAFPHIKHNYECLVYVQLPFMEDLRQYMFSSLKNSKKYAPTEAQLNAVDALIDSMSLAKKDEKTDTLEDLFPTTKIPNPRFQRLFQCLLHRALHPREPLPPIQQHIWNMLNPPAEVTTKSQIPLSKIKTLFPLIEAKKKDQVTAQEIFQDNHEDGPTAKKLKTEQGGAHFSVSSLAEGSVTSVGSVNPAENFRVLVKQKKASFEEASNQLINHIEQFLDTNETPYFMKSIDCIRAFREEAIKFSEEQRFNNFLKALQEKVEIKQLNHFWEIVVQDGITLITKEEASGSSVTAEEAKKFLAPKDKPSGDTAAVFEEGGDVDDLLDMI

For some assays here: The comparison behind a weaker result is the experiment's own reference, which may not be listed here. Construct, isoform or probe ends are uncertain for at least one entry. For some assays here: Negatives hold for the conditions tested. For some assays here: At least one verdict rests on a figure or table, not on a statement of the authors.

Consider “CCUGGGGUAGGAGAGGGUAUGGGGACCAGGGCACU [LINP1 GQ1]”, for which the binding result is “binds” in the data set with Ku dCTR (human) (label: 5'-FAM), “binds” in data set [1] (label: 5'-FAM), “no binding” in data set [2] and “binds” in data set [3] (label: 5'-FAM).

As to “AGCATTGACTGGCATCGTAGCATCC (double strand) [25bp duplex DNA]”, the binding result (in data set [4] (label: 3'-FAM on lower strand); in the data set with Ku dCTR (human) (label: 3'-FAM on lower strand); in data set [1] (label: 3'-FAM on lower …); in data set [3] (label: 3'-FAM on lower strand)) was “binds” throughout.

“AAGGCUAGACCGGGGGCUCGCAUAUCUCCACUUGCAGCUGCCACUGCCA [SL3]”: the binding result in the data set on Ku dCTR (human) (label: 5'-FAM) is on record as “binds”; in data set [1] (label: 5'-FAM), “binds”; in data set [2], “no binding”; in data set [3] (label: 5'-FAM), “binds”.

In the case of “UGACUGGAGGAAGGAGUAUAGAAACUCUUCCUUUUGGCG [SL2-BT]”, in data set [4] (label: 5'-FAM), the binding result was “binds more weakly”.

For “UGACUUUUCCUUGCUCAAUAGAAUGAGAAGGAGGUGGCG [SL2]”, the binding result was “binds” in the data set with Ku dCTR (human) (label: 5'-FAM); “binds” in data set [1] (label: 5'-FAM); “no binding” in data set [2]; “binds” in data set [3] (label: 5'-FAM); “binds” in data set [5]; “binds” in data set [6].

As for “UGACUUUUCCUUGCUCAUUUUUUUGAGAAGGAGGUGGCG [SL2-LM]”, the binding result in data set [4] (label: 5'-FAM) is “binds more weakly”.

These data come from paper PMC7641761.
